# According to PubChem BioAssay AID493014 (National Center for Advancing Translational Sciences (NCATS), 2011):
# Out of some 340,000 compounds screened, about 170 (0.05%) were called active. The inconclusive results got no clear call from the source; some entries with a clear call stand among them for comparison. Calls come from the whole dose curve; as a rule, active = well fitted inhibition curve with a large enough effect in the signal ratio, with a control signal flat (not every such curve was filed as active); inconclusive = small, poorly fitted or top-dose-only effect, or effect the other way, or a change in a side signal; inactive = flat fitted curve, though single readings scatter; the % refers to the signal ratio. Where the call is inconclusive, the potency comes from a doubtful curve fit.
# Experiment: qHTS Assay to Find Inhibitors of Chronic Active B-Cell Receptor Signaling;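 for activity change, negative = inhibition: plate controls were basal doxycycline-induced cells for no effect and cells given 10 µM MG132 for full effect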
# Conditions: ABC-DLBCL IkBa-CBG/CBR reporter, luminescence ratio (green luciferase fused to IkBa over red control in TMD8 lymphoma cells), 4 h; activity change, negative = inhibition: at 46.1 µM (top of the series)
# Summary of the method: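 Doxycycline induced both beetle luciferases in TMD8 lymphoma cells; IKK-driven degradation limits the IkappaBalpha-fused green signal, while red luminescence normalises for cell number and nonspecific effects. Compounds tested up to 46 uM, 4 hrs.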
# Potency is the fitted concentration of half-maximal effect.
Compound,"activity change, negative = inhibition",Potency
COc1ccc(C(C(=O)NCC2CCCO2)N(Cc2ccccc2)C(=O)c2snc(C(N)=O)c2N)cc1OC (stereo not drawn),inconclusive: 0.0248%,–
CCOC(=O)c1c(C)oc2c1c(C(c1cccnc1)N1CCN(C)CC1)c(O)c1ccccc12 (stereo not drawn),inconclusive: -2.9%,–
CCC(CC)C(=O)Nc1cccc(C(=O)N2CCCCCC2)c1,inactive,–
O=S(=O)(N/N=C\c1cn(-c2ccccc2)nc1-c1ccccc1)c1ccccc1,–,"inconclusive: 10 µM [rising, partial curve, poor fit]"
COc1ccc(-c2c(-c3ccccc3OC)sc3ccccc23)cc1OC,inactive,–
COc1ccc(CNC(=O)COC(=O)c2n[nH]c3ccccc23)cc1OC,–,"inconclusive: 23.1 µM [falling, partial curve]"
Cc1ccc(C)c(NC(=O)CCN2C(=O)c3ccccc3C2=O)c1,inconclusive: 1.89%,–
CCN1CCN(CCCNC(=O)CNC(=O)c2nn(-c3ccc(OC)cc3OC)c(=O)c3ccccc23)CC1,inconclusive: 2.53%,–
O=C(c1ccc2[nH]c3c(c2c1)CCCC3)N1CCN(c2ccc(F)cc2)CC1,inconclusive: 3.62%,–
Cc1oc2nc(SCC(=O)Nc3ccc(S(N)(=O)=O)cc3)nc(NC(=O)c3ccccc3)c2c1C,inconclusive: -17.8%,–
COC(=O)c1ccc(CO/N=C2\CCCc3nonc32)cc1,inconclusive: 13.8%,–
CN(CC(=O)Nc1ccccc1Cl)C(=O)c1ccccc1Sc1ccccc1C#N,inactive,–
CCSc1nsc(NC(=O)Nc2ccccc2OC)n1,–,"inconclusive: 0.708 µM [rising, full curve, poor fit]"
Cc1nc(N2CCN(C(=O)c3ccc(Cl)cc3)CC2)c(C#N)c2c1COC(C)(C)C2,inactive,–
Clc1ccccc1Cc1noc(CN2CCCCC2c2ccccn2)n1 (stereo not drawn),inconclusive: 0.234%,–
O=C(NCc1ccccn1)NC12CC3CC(CC(C3)C1)C2,inconclusive: 3.17%,–
CCOC(=O)c1ccc(NC(=O)CC2SC(=NC)N(C)C2=O)cc1 (stereo not drawn),–,"inconclusive: 1.46 µM [rising, full curve]"
Cc1nc(NC(=O)c2cccc(Cl)c2)sc1C(=O)N1CCCCC1,–,"inconclusive: 11.2 µM [falling, partial curve, poor fit]"
Cn1c2ccc(F)cc2c2nnc(SCC(=O)Nc3cccc(O)c3)nc21,inconclusive: -16.4%,–
O=C(Cc1ccccc1)c1ccccc1C(=O)N1CCCCC1,inconclusive: 2.76%,–
Cc1ccc(NC(=O)C2CCCCC2)c(O)c1,–,"inconclusive: 22.4 µM [falling, single point]"
O=C(NC1CCc2ccccc21)c1cc(COc2cncc(Cl)c2)on1 (stereo not drawn),–,"inconclusive: 25.1 µM [falling, partial curve, poor fit]"
COc1ccc(CN(CCC(c2ccccc2)c2ccc(OC(C)C)cc2)C(=O)CCl)cc1OC (stereo not drawn),inconclusive: 30%,–
CCOc1ccccc1N1C(=O)CC(Sc2n[nH]c(-c3ccccc3)n2)C1=O (stereo not drawn),–,"inconclusive: 20 µM [falling, partial curve, poor fit]"
Cc1cccc(/C(N)=N/OC(=O)c2ccc3c(c2)OCO3)c1,–,"inconclusive: 29.1 µM [falling, single point]"
Cc1ccc(S(=O)(=O)CCC(=O)OCC(=O)NCCc2ccccc2)cc1,inactive,–

Compound,"activity change, negative = inhibition",Potency
CCN1/C(=C2\C(=O)N(C)C(=S)N2C)C=Cc2cc(C)ccc21,inconclusive: 24.4%,–
Cc1ccccc1C(=O)Nc1ccccc1N1CCN(C(=O)c2ccccc2)CC1,inconclusive: 3.35%,–
O=S(=O)(c1ccccc1)N1CCN(Cc2c(O)ccc3ccccc23)CC1,inactive,–
C/C(=N\NC(=S)Nc1cc(S(=O)(=O)N2CCOCC2)ccc1Cl)c1ccccc1F,–,"inconclusive: 6.51 µM [falling, single point]"
N#Cc1nc(-c2ccccc2F)oc1NCCN1CCOCC1,inconclusive: 22.8%,–
CC/C(=N\O)c1c(O)c2c(n(-c3ccccc3)c1=O)CCCC2,inconclusive: -2.17%,–
COc1cccc(OC)c1C(=O)Nc1ccccc1N1CCCC1,inconclusive: 15.2%,–
CCOc1ccccc1NC(=O)CSc1nc2[nH]ncc2c(=O)[nH]1,–,"inconclusive: 20.6 µM [falling, partial curve]"
Cc1ccc2nsnc2c1S(=O)(=O)N1CCOCC1,inconclusive: -16.8%,–
CCN(CC)CCN1C(=O)C(=O)/C(=C(/O)c2ccc(OC)c(OC)c2)C1c1ccccn1 (stereo not drawn),inconclusive: 2.71%,–
NC(=O)c1sc2nc3c(c(-c4cccs4)c2c1N)CCCCC3,inactive,–
Cc1cc(C)cc(NC(=O)Cn2cc3c(n2)CCCCC3)c1,inconclusive: 8.05%,–
CC1(C)CC(=O)C2=C(C1)OC(N)=C(C#N)C2c1cccs1 (stereo not drawn),inconclusive: -20.8%,–
O=C(c1ccc2c(=O)n(-c3ccccc3)c(=S)[nH]c2c1)N1CCCCC1,inactive,–
Cc1ccc(S(=O)(=O)N2CCCC2C(=O)NCc2ccccc2Cl)cc1 (stereo not drawn),inconclusive: -0.955%,–
Cc1cccc(NC(=O)c2ccc3nsnc3c2)c1C,–,"inconclusive: 0.316 µM [falling, full curve, poor fit]"
COc1ccccc1NC(=O)C(C)OC(=O)C1COc2ccccc2O1 (stereo not drawn),inconclusive: -15.3%,–
CCn1c(SCC(=O)Nc2ccc3c(c2)OCO3)nnc1-c1cnccn1,inactive,–
COc1cc(C#Cc2ccc3cc(CCCO)oc(=O)c3c2)cc(OC)c1,–,active: 14.6 µM
CN(C)/C=N/C(=S)Nc1ccccc1,inactive,–
CCc1ccc2nc(N(CCCN(C)C)C(=O)c3ccc(S(=O)(=O)N(C)C4CCCCC4)cc3)sc2c1,inconclusive: -0.549%,–
COC(CNC(=O)c1cccc(-n2c(=S)[nH]c3cc(Cl)ccc3c2=O)c1)OC,inactive,–
O=S(=O)(c1cccc(NC(=S)N2CCN(c3ccccc3)CC2)c1)C(F)F,inconclusive: -7.1%,–
CCS(=O)(=O)c1ccc2oc(Nc3ccccc3Br)nc2c1,inconclusive: -4.62%,–
C#CCOCCOCCOCCNc1nc(N2CCN(C(=O)CCCCCCCCCCNC(=O)[C@H](CCCCN)n3cc(C[C@@H](C)CC)nn3)CC2)nc(N2CCN(C(=O)CCCCCCCCCCNC(=O)[C@H](CCCN=C(N)N)n3cc(C[C@@H](C)CC)nn3)CC2)n1,inconclusive: 9.2%,–
CC(C)(C)C(=O)NCc1ccc(C(=O)CSc2nnc(C3CC3)n2C2CC2)s1,inconclusive: 2.47%,–

# An excerpt of these results, tab-delimited.
Compound	activity change, negative = inhibition	Potency
CCN1/C(=C2\C(=O)N(C)C(=S)N2C)C=Cc2cc(C)ccc21	inconclusive: 24.4%	–
O=S(=O)(c1ccccc1)N1CCN(Cc2c(O)ccc3ccccc23)CC1	inactive	–
N#Cc1nc(-c2ccccc2F)oc1NCCN1CCOCC1	inconclusive: 22.8%	–
CC/C(=N\O)c1c(O)c2c(n(-c3ccccc3)c1=O)CCCC2	inconclusive: -2.17%	–
COc1cccc(OC)c1C(=O)Nc1ccccc1N1CCCC1	inconclusive: 15.2%	–
CCOc1ccccc1NC(=O)CSc1nc2[nH]ncc2c(=O)[nH]1	–	inconclusive: 20.6 µM [falling, partial curve]
Cc1cc(C)cc(NC(=O)Cn2cc3c(n2)CCCCC3)c1	inconclusive: 8.05%	–
O=C(c1ccc2c(=O)n(-c3ccccc3)c(=S)[nH]c2c1)N1CCCCC1	inactive	–
Cc1ccc(S(=O)(=O)N2CCCC2C(=O)NCc2ccccc2Cl)cc1 (stereo not drawn)	inconclusive: -0.955%	–
Cc1cccc(NC(=O)c2ccc3nsnc3c2)c1C	–	inconclusive: 0.316 µM [falling, full curve, poor fit]
CCn1c(SCC(=O)Nc2ccc3c(c2)OCO3)nnc1-c1cnccn1	inactive	–
COc1cc(C#Cc2ccc3cc(CCCO)oc(=O)c3c2)cc(OC)c1	–	active: 14.6 µM
CN(C)/C=N/C(=S)Nc1ccccc1	inactive	–
CCc1ccc2nc(N(CCCN(C)C)C(=O)c3ccc(S(=O)(=O)N(C)C4CCCCC4)cc3)sc2c1	inconclusive: -0.549%	–
COC(CNC(=O)c1cccc(-n2c(=S)[nH]c3cc(Cl)ccc3c2=O)c1)OC	inactive	–
O=S(=O)(c1cccc(NC(=S)N2CCN(c3ccccc3)CC2)c1)C(F)F	inconclusive: -7.1%	–
CCS(=O)(=O)c1ccc2oc(Nc3ccccc3Br)nc2c1	inconclusive: -4.62%	–
C#CCOCCOCCOCCNc1nc(N2CCN(C(=O)CCCCCCCCCCNC(=O)[C@H](CCCCN)n3cc(C[C@@H](C)CC)nn3)CC2)nc(N2CCN(C(=O)CCCCCCCCCCNC(=O)[C@H](CCCN=C(N)N)n3cc(C[C@@H](C)CC)nn3)CC2)n1	inconclusive: 9.2%	–

# More results follow.

Compound,"activity change, negative = inhibition",Potency
CCCS(=O)(=O)c1c(S(=O)(=O)CCC)c2c(C)cccn2c1C(=O)N/N=C/c1cc(O)cc(O)c1,–,"inconclusive: 20 µM [falling, partial curve]"
O=C(NCC1CCCO1)c1cc2ccccc2oc1=O (stereo not drawn),–,"inconclusive: 15.8 µM [falling, single point]"
CC(=O)C(C(C)=O)C(NC(=O)c1cccnc1)(C(F)(F)F)C(F)(F)F,inactive,–
Nc1c(C(=O)NC2CCCC2)c2nc3ccccc3nc2n1/N=C/c1ccco1,inconclusive: 21.1%,–
N#C/C(=C(/O)c1ccc([N+](=O)[O-])o1)c1nc2ccccc2[nH]1,–,"inconclusive: 3.98 µM [falling, single point]"
O=C(Nc1ccccc1)c1ccc2c(c1)OCCO2,–,"inconclusive: 22.4 µM [falling, partial curve]"
CCc1ccccc1-n1c(SCC(=O)NC)nnc1-c1cccnc1,inconclusive: 0.685%,–
Cc1ccc(C(=O)c2cc([N+](=O)[O-])ccc2N2CCCCC2)c(C)c1,–,"inconclusive: 5.8 µM [falling, partial curve, poor fit]"
COc1ccc(N=Nc2ccc3ccccc3c2)c(O)c1,–,"inconclusive: 0.708 µM [falling, full curve, poor fit]"
Cc1ccc(NC(=O)Nc2ccno2)cc1,inconclusive: 18.3%,–
Cc1ccnc(NC(=O)CNC(=O)C23CC4CC(CC(C4)C2)C3)c1,inconclusive: 13.7%,–
COC(=O)c1sccc1NC(=O)Nc1cc(OC)ccc1OC,inconclusive: -4.97%,–
CCc1ccc(CNc2ccc3c(c2)ncn3C)cc1,inconclusive: 5.67%,–
O=[N+]([O-])c1ccc(Sc2n[nH]c(-c3ccco3)n2)nc1,inconclusive: 4.01%,–
CCc1cccc(C)c1NC(=O)c1cccnc1,inactive,–
CCC1(c2cccc(Cl)c2)NC(=O)N(Cc2cc(C(=O)OC)c(C)o2)C1=O (stereo not drawn),–,"inconclusive: 20.6 µM [falling, single point]"
Cc1ccnc(NC(=O)CCC2COc3ccccc3O2)c1 (stereo not drawn),inactive,–
Cc1cc(NC(=O)CN2CCCC(C)C2)no1 (stereo not drawn),–,"inconclusive: 20 µM [falling, single point]"
CCCCCCSc1ccc([C@H]2N[C@@](CC(C)C)(C(=O)OC)[C@H]3C(=O)N(C)C(=O)[C@@H]23)cc1,inconclusive: -0.795%,–
CC(=O)Nc1ccc(NC(=O)C(C)OC(=O)CSc2ccc(Br)cc2C)cc1 (stereo not drawn),inconclusive: 1.36%,–
COc1ccc(CN(C)CC(=O)Nc2cccc(S(=O)(=O)N(C)c3ccccc3)c2)c(OC)c1,–,"inconclusive: 23.1 µM [falling, partial curve, poor fit]"
CCc1nc(Nc2ccncc2)c2oc3ccccc3c2n1,inconclusive: -17%,–
O=C(Nc1ccc(S(=O)(=O)Nc2ccc(Cl)cc2)cc1)C1CCCO1 (stereo not drawn),inactive,–
O=C1C2C(C(=O)N1/N=C/c1ccc(N3CCCCC3)o1)C1C=CC2C12CC2 (stereo not drawn),inactive,–
COc1ccc(NC(=O)C2=CC(c3ccc(OC)c(OC)c3)=NS(=O)(=O)N2C)cc1,–,"inconclusive: 35.5 µM [falling, single point]"
COc1ccc(-n2c(CN3CCN(c4ccc(F)cc4)CC3)nc3ccc([N+](=O)[O-])cc3c2=O)c(OC)c1,inconclusive: 3.95%,–
